From PubChem BioAssay AID743255 (National Center for Advancing Translational Sciences (NCATS), 2014)
The whole screen tested about 390,000 compounds, of which about 910 (0.23%) were called active. The shares of active, inactive and inconclusive entries below differ from those in the screen. Calls come from the whole dose curve; as a rule, active = well fitted inhibition curve with a large enough effect; inconclusive = small, poorly fitted or top-dose-only effect; inactive = no such curve, though single readings can be large or run the other way. A potency beside an inconclusive call is a rough fit, not a confirmed value.

The chains behind the UniProt entries cited, without tags or fusion partners. Where a name states a change or a piece, a line headed by the entry shows the natural chain unless it says otherwise.
UniProt O94782: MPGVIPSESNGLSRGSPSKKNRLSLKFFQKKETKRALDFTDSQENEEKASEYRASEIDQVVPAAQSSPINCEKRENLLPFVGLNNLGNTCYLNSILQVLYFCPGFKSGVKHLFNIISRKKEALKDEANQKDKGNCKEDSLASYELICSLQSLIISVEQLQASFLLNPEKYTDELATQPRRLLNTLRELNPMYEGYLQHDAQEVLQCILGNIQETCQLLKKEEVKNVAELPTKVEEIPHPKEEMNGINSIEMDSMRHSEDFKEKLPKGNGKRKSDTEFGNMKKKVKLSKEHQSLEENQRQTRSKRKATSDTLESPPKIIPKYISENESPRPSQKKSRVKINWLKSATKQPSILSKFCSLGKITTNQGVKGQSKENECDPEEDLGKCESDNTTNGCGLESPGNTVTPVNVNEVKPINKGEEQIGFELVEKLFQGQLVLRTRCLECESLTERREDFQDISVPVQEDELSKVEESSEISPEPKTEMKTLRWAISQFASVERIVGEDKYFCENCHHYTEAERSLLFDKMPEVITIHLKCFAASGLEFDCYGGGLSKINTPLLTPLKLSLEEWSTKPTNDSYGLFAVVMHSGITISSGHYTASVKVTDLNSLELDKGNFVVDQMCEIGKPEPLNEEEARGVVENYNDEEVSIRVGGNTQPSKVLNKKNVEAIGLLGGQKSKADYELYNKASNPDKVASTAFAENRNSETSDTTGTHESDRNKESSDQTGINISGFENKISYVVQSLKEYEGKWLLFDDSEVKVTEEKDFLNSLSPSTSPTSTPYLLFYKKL

target: Ubiquitin carboxyl-terminal hydrolase 1 (Homo sapiens) (UniProt O94782); experiment: Inhibitors of USP1/UAF1: Primary Screen; conditions: recombinant USP1/UAF1, Ub-Rhodamine cleavage fluorescence; series mostly up to 57.1 µM; note: nearly all actives have a fitted effect of over 60% in size
In short: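 High-throughput fluorogenic screen: 1nM USP1/UAF1 complex, Ub-Rho substrate 150nM final, 50mM HEPES pH 7.8 with 0.5mM EDTA, 0.1 mg/ml BSA, 1mM TCEP and 0.01% Tween-20.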
Potency is the fitted concentration of half-maximal effect.

Potency, active:
COc1ccc2nc(NNC(=O)c3cc(=O)c4ccccc4o3)sc2c1 28.2 µM

Potency, inconclusive:
COc1cc2nc3occc3c(OC)c2cc1OC 0.282 µM [inhibitor, full curve, poor fit]
Cc1ccc(C(=O)NCC(=O)NCCCc2ccccc2)s1 50.1 µM [inhibitor, partial curve, poor fit]
Cc1ccc(S(=O)(=O)Nc2ccc3c(c2)C(=O)N([C@H](C)CO)C[C@H](C)[C@@H](CN(C)Cc2ccc(-c4ccccc4)cc2)O3)cc1 50.1 µM [inhibitor, partial curve, poor fit]
CCOC(=O)c1c(-c2ccc(C)o2)csc1NC(=O)CN1CCC(C(N)=O)CC1 0.282 µM [inhibitor, full curve, poor fit]
c1ccc2sc(NC3=NCN(Cc4ccc5c(c4)OCO5)CN3)nc2c1 44.7 µM [inhibitor, partial curve, poor fit]
CCOC(=O)C1CCCN(c2nc3ccccc3nc2C(C#N)C(=O)NCc2ccccc2)C1 (stereo not drawn) 44.7 µM [inhibitor, partial curve]
O=C(O)CCCN1C(=O)/C(=C/c2cn(-c3ccccc3)nc2-c2cccs2)SC1=S 35.5 µM [inhibitor, partial curve, poor fit]
CC(C)C[C@@H](CN1CCC[C@@H]1CN1C(=O)C(=O)NC[C@@H]1Cc1ccccc1)N1C[C@H](Cc2ccc(O)cc2)N(CCc2ccccc2)C(=O)C1=O 0.282 µM [inhibitor, full curve]
COc1cccc(CNc2nc3ccccc3c3nc(-c4cccc(C)c4)nn23)c1 25.1 µM [inhibitor, partial curve]
C#CCOCCOCCOCCNc1nc(N2CCN(C(=O)CCCCCCCCCCNC(=O)[C@H]([C@@H](C)CC)n3cc(CCCCN=C(N)N)nn3)CC2)nc(N2CCN(C(=O)CCCCCCCCCCNC(=O)[C@@H]([C@H](C)O)n3cc(C)nn3)CC2)n1 31.6 µM [inhibitor, single point]

Quoted at random: 2 compounds from above
Potency, inconclusive:
Cc1ccc(S(=O)(=O)Nc2ccc3c(c2)C(=O)N([C@H](C)CO)C[C@H](C)[C@@H](CN(C)Cc2ccc(-c4ccccc4)cc2)O3)cc1 50.1 µM [inhibitor, partial curve, poor fit]
c1ccc2sc(NC3=NCN(Cc4ccc5c(c4)OCO5)CN3)nc2c1 44.7 µM [inhibitor, partial curve, poor fit]

Following part.

Potency, inactive:
O=C(Nc1ccccc1C(=O)O)c1ccccc1
CCCCn1c(N)c(N(CC(C)C)C(=O)Cn2c(=O)cnc3ccccc32)c(=O)[nH]c1=O
CC(C)CCN(C(=O)Nc1ccc(Cl)c(Cl)c1)C1CCN(C(C)C)CC1
CCc1cccc(C)c1Nc1c(-c2ccc(SC)cc2)nc2sccn12
Cn1c(C(=O)NCCN2CCc3ccccc3C2)cc2c(=O)n(C)c3ccccc3c21
Cc1ccc(OCc2cc(C(=O)N(C)Cc3cnn(-c4ccccc4C)c3)no2)cn1
COC(=O)c1ccc(NC(=O)CN2CCCN(Cc3ccc(Cl)cc3)S2(=O)=O)cc1
